# Experimental data as given in the supplement of paper PMC8728848.
# The list shows a part of the results.
# How the values were obtained:
# Assay in all cases: glycan array binding signal (z-score within array); higher = stronger binding
# Details in all cases: glycan notation: IUPAC condensed, linker removed
# [1] = target: Gal(b1-4)Glc
# Outline: (§1)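 Glycan array data came from 3228 arrays in the Consortium for Functional Glycomics database, and only arrays with an available protein sequence were kept. Glycan names were put into IUPAC-condensed notation, and columns mapping to the same glycan were averaged. The binding signal is a within-array Z-score, averaged across arrays of one protein sequence run at different concentrations or buffers and across linkers. A negative Z-score can be read as non-binding.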
# [2] = target: Gal(b1-4)Glc6S
# Outline: as §1
# [3] = target: Gal(b1-4)GlcNAc
# Outline: as §1
# [4] = target: Gal(b1-4)GlcNAc(a1-6)Gal(b1-4)GlcNAc
# Outline: as §1
# [5] = target: Gal(b1-4)GlcNAc(b1-2)Man
# Outline: as §1
# [6] = target: Gal(b1-4)GlcNAc(b1-2)Man(a1-3)Man(b1-4)GlcNAc(b1-4)GlcNAc
# Outline: as §1
# [7] = target: Gal(b1-4)GlcNAc(b1-2)Man(a1-3)[Gal(b1-4)GlcNAc(b1-2)Man(a1-6)]Man(b1-4)GlcNAc(b1-4)GlcNAc
# Outline: as §1
# [8] = target: Gal(b1-4)GlcNAc(b1-2)Man(a1-3)[Gal(b1-4)GlcNAc(b1-2)Man(a1-6)]Man(b1-4)GlcNAc(b1-4)[Fuc(a1-6)]GlcNAc
# Outline: as §1
# [9] = target: Gal(b1-4)GlcNAc(b1-2)Man(a1-3)[Gal(b1-4)GlcNAc(b1-2)Man(a1-6)][Gal(b1-4)GlcNAc(b1-4)]Man(b1-4)GlcNAc(b1-4)[Fuc(a1-6)]GlcNAc
# Outline: as §1
# [10] = target: Gal(b1-4)GlcNAc(b1-2)Man(a1-3)[Gal(b1-4)GlcNAc(b1-2)Man(a1-6)][GlcNAc(b1-4)]Man(b1-4)GlcNAc(b1-4)[Fuc(a1-6)]GlcNAc
# Outline: as §1
# [11] = target: Gal(b1-4)GlcNAc(b1-2)Man(a1-3)[GlcNAc(b1-2)Man(a1-6)]Man(b1-4)GlcNAc(b1-4)GlcNAc
# Outline: as §1
# [12] = target: Gal(b1-4)GlcNAc(b1-2)Man(a1-3)[GlcNAc(b1-4)][Gal(b1-4)GlcNAc(b1-2)Man(a1-6)]Man(b1-4)GlcNAc(b1-4)GlcNAc
# Outline: as §1
# [13] = target: Gal(b1-4)GlcNAc(b1-2)Man(a1-3)[Man(a1-6)]Man(b1-4)GlcNAc(b1-4)GlcNAc
# Outline: as §1
# [14] = target: Gal(b1-4)GlcNAc(b1-2)Man(a1-6)Man(b1-4)GlcNAc(b1-4)GlcNAc
# Outline: as §1
# [15] = target: Gal(b1-4)GlcNAc(b1-2)Man(a1-6)[GlcNAc(b1-2)Man(a1-3)]Man(b1-4)GlcNAc(b1-4)GlcNAc
# Outline: as §1
# [16] = target: Gal(b1-4)GlcNAc(b1-2)Man(a1-6)[Man(a1-3)]Man(b1-4)GlcNAc(b1-4)GlcNAc
# Outline: as §1
# [17] = target: Gal(b1-4)GlcNAc(b1-2)[Gal(b1-4)GlcNAc(b1-4)]Man(a1-3)[Gal(b1-4)GlcNAc(b1-2)Man(a1-6)]Man(b1-4)GlcNAc(b1-4)GlcNAc
# Outline: as §1
# [18] = target: Gal(b1-4)GlcNAc(b1-2)[Gal(b1-4)GlcNAc(b1-4)]Man(a1-3)[Gal(b1-4)GlcNAc(b1-2)[Gal(b1-4)GlcNAc(b1-6)]Man(a1-6)]Man(b1-4)GlcNAc(b1-4)GlcNAc
# Outline: as §1
# [19] = target: Gal(b1-4)GlcNAc(b1-2)[Gal(b1-4)GlcNAc(b1-4)]Man(a1-3)[GlcNAc(b1-4)][Gal(b1-4)GlcNAc(b1-2)Man(a1-6)]Man(b1-4)GlcNAc(b1-4)GlcNAc
# Outline: as §1
# [20] = target: Gal(b1-4)GlcNAc(b1-2)[Gal(b1-4)GlcNAc(b1-4)]Man(a1-3)[GlcNAc(b1-4)][Gal(b1-4)GlcNAc(b1-2)[Gal(b1-4)GlcNAc(b1-6)]Man(a1-6)]Man(b1-4)GlcNAc(b1-4)GlcNAc
# Outline: as §1
# [21] = target: Gal(b1-4)GlcNAc(b1-2)[Gal(b1-4)GlcNAc(b1-6)]Man(a1-6)[Gal(b1-4)GlcNAc(b1-2)Man(a1-3)]Man(b1-4)GlcNAc(b1-4)GlcNAc
# Outline: as §1
# [22] = target: Gal(b1-4)GlcNAc(b1-2)[Gal(b1-4)GlcNAc(b1-6)]Man(a1-6)[Gal(b1-4)GlcNAc(b1-2)Man(a1-3)]Man(b1-4)GlcNAc(b1-4)[Fuc(a1-6)]GlcNAc
# Outline: as §1
# [23] = target: Gal(b1-4)GlcNAc(b1-2)[Gal(b1-4)GlcNAc(b1-6)]Man(a1-6)[GlcNAc(b1-4)][Gal(b1-4)GlcNAc(b1-2)Man(a1-3)]Man(b1-4)GlcNAc(b1-4)GlcNAc
# Outline: as §1
# [24] = target: Gal(b1-4)GlcNAc(b1-2)[Gal(b1-4)GlcNAc(b1-6)]Man(a1-6)[GlcNAc(b1-4)][Gal(b1-4)GlcNAc(b1-2)[Gal(b1-4)GlcNAc(b1-4)]Man(a1-3)]Man(b1-4)GlcNAc(b1-4)[Fuc(a1-6)]GlcNAc
# Outline: as §1
# [25] = target: Gal(b1-4)GlcNAc(b1-3)Gal(b1-3)GalNAc
# Outline: as §1
# [26] = target: Gal(b1-4)GlcNAc(b1-3)Gal(b1-3)GlcNAc
# Outline: as §1
# [27] = target: Gal(b1-4)GlcNAc(b1-3)Gal(b1-4)Glc
# Outline: as §1
# [28] = target: Gal(b1-4)GlcNAc(b1-3)Gal(b1-4)GlcNAc
# Outline: as §1
# [29] = target: Gal(b1-4)GlcNAc(b1-3)Gal(b1-4)GlcNAc(b1-2)Man(a1-3)[Gal(b1-4)GlcNAc(b1-3)Gal(b1-4)GlcNAc(b1-2)Man(a1-6)]Man(b1-4)GlcNAc(b1-4)GlcNAc
# Outline: as §1
# [30] = target: Gal(b1-4)GlcNAc(b1-3)Gal(b1-4)GlcNAc(b1-2)Man(a1-3)[Gal(b1-4)GlcNAc(b1-3)Gal(b1-4)GlcNAc(b1-2)Man(a1-6)]Man(b1-4)GlcNAc(b1-4)[Fuc(a1-6)]GlcNAc
# Outline: as §1
# [31] = target: Gal(b1-4)GlcNAc(b1-3)Gal(b1-4)GlcNAc(b1-2)[Gal(b1-4)GlcNAc(b1-3)Gal(b1-4)GlcNAc(b1-6)]Man(a1-6)[Gal(b1-4)GlcNAc(b1-3)Gal(b1-4)GlcNAc(b1-2)Man(a1-3)]Man(b1-4)GlcNAc(b1-4)GlcNAc
# Outline: as §1
# [32] = target: Gal(b1-4)GlcNAc(b1-3)Gal(b1-4)GlcNAc(b1-2)[Gal(b1-4)GlcNAc(b1-3)Gal(b1-4)GlcNAc(b1-6)]Man(a1-6)[Gal(b1-4)GlcNAc(b1-3)Gal(b1-4)GlcNAc(b1-2)Man(a1-3)]Man(b1-4)GlcNAc(b1-4)[Fuc(a1-6)]GlcNAc
# Outline: as §1
# [33] = target: Gal(b1-4)GlcNAc(b1-3)Gal(b1-4)GlcNAc(b1-3)Gal(b1-4)GlcNAc
# Outline: as §1
# [34] = target: Gal(b1-4)GlcNAc(b1-3)Gal(b1-4)GlcNAc(b1-3)Gal(b1-4)GlcNAc(b1-2)Man(a1-3)[Gal(b1-4)GlcNAc(b1-3)Gal(b1-4)GlcNAc(b1-3)Gal(b1-4)GlcNAc(b1-2)Man(a1-6)]Man(b1-4)GlcNAc(b1-4)GlcNAc
# Outline: as §1
# [35] = target: Gal(b1-4)GlcNAc(b1-3)Gal(b1-4)GlcNAc(b1-3)Gal(b1-4)GlcNAc(b1-2)Man(a1-3)[Gal(b1-4)GlcNAc(b1-3)Gal(b1-4)GlcNAc(b1-3)Gal(b1-4)GlcNAc(b1-2)Man(a1-6)]Man(b1-4)GlcNAc(b1-4)[Fuc(a1-6)]GlcNAc
# Outline: as §1
# [36] = target: Gal(b1-4)GlcNAc(b1-3)Gal(b1-4)GlcNAc(b1-3)Gal(b1-4)GlcNAc(b1-2)[Gal(b1-4)GlcNAc(b1-3)Gal(b1-4)GlcNAc(b1-3)Gal(b1-4)GlcNAc(b1-6)]Man(a1-6)[Gal(b1-4)GlcNAc(b1-3)Gal(b1-4)GlcNAc(b1-3)Gal(b1-4)GlcNAc(b1-2)Man(a1-3)]Man(b1-4)GlcNAc(b1-4)[Fuc(a1-6)]GlcNAc
# Outline: as §1
# [37] = target: Gal(b1-4)GlcNAc(b1-3)Gal(b1-4)GlcNAc(b1-3)Gal(b1-4)GlcNAc(b1-3)Gal(b1-4)GlcNAc(b1-2)Man(a1-3)[Gal(b1-4)GlcNAc(b1-3)Gal(b1-4)GlcNAc(b1-3)Gal(b1-4)GlcNAc(b1-3)Gal(b1-4)GlcNAc(b1-2)Man(a1-6)]Man(b1-4)GlcNAc(b1-4)GlcNAc
# Outline: as §1
binder,measurement,setting,value
PX9916F-bfa-443-24-443 (Bacteroides fragilis) (protein) DIRPVGSVIPQTAEEYRALLARAYLNVPNDRGLACLRSDEMLVNDNEYDRNSYGDIERWNDVSPFPGTSQFTWSNFYNVLFIANQVIESQKEITEGTPEVVNQLVGEAHLLRAYLHFVLVNLHGQPYTKSGALNSKSIPLKLDTDLEKTLGRNTVEEVYTSILSDIEHARELINKEKWETVFSYRFNVLSVDALQSRVSLYMGAWPKCLESAEAVLAKKSVLVDMNETPLALPNHFESVESITALEQVMGSSVNNAVWVPATFLALYQEGDKRLAAYFAAPDENGNRKSSKGGKREFSCTFRVGELYLNAAEAAANMDKLPHARMRLLELMRKRYTPEAYDKKENAVNVMDKNALISEILNERARELAFEGHRWFDLRRTTRPRMVKVLQGKTYILEQDDPRYTIPIPRDAIAANPGLAN,glycan array binding signal (z-score),[1],-0.474
same,glycan array binding signal (z-score),[2],0.038
same,glycan array binding signal (z-score),[3],0.011
same,glycan array binding signal (z-score),[4],-0.856
same,glycan array binding signal (z-score),[5],2.63
same,glycan array binding signal (z-score),[6],-0.479
same,glycan array binding signal (z-score),[7],0.717
same,glycan array binding signal (z-score),[8],2.37
same,glycan array binding signal (z-score),[9],-0.624
same,glycan array binding signal (z-score),[10],-0.379
same,glycan array binding signal (z-score),[11],-0.16
same,glycan array binding signal (z-score),[12],-1.04
same,glycan array binding signal (z-score),[13],-0.402
same,glycan array binding signal (z-score),[14],-0.59
same,glycan array binding signal (z-score),[15],0.002
same,glycan array binding signal (z-score),[16],-0.674
same,glycan array binding signal (z-score),[17],-0.219
same,glycan array binding signal (z-score),[18],-0.78
same,glycan array binding signal (z-score),[19],-0.646
same,glycan array binding signal (z-score),[20],0.053
same,glycan array binding signal (z-score),[21],-0.716
same,glycan array binding signal (z-score),[22],-0.099
same,glycan array binding signal (z-score),[23],-1.2
same,glycan array binding signal (z-score),[24],-1.05
same,glycan array binding signal (z-score),[25],0.112
same,glycan array binding signal (z-score),[26],-1.19
same,glycan array binding signal (z-score),[27],-0.479
same,glycan array binding signal (z-score),[28],-0.513
same,glycan array binding signal (z-score),[29],1.21
same,glycan array binding signal (z-score),[30],0.44
same,glycan array binding signal (z-score),[31],0.786
same,glycan array binding signal (z-score),[32],2.26
same,glycan array binding signal (z-score),[33],-0.576
same,glycan array binding signal (z-score),[34],0.837
same,glycan array binding signal (z-score),[35],2.81
same,glycan array binding signal (z-score),[36],1.15
same,glycan array binding signal (z-score),[37],-0.669

# Part of the list above, as tab-separated lines:
binder	measurement	setting	value
PX9916F-bfa-443-24-443 (Bacteroides fragilis) (protein) DIRPVGSVIPQTAEEYRALLARAYLNVPNDRGLACLRSDEMLVNDNEYDRNSYGDIERWNDVSPFPGTSQFTWSNFYNVLFIANQVIESQKEITEGTPEVVNQLVGEAHLLRAYLHFVLVNLHGQPYTKSGALNSKSIPLKLDTDLEKTLGRNTVEEVYTSILSDIEHARELINKEKWETVFSYRFNVLSVDALQSRVSLYMGAWPKCLESAEAVLAKKSVLVDMNETPLALPNHFESVESITALEQVMGSSVNNAVWVPATFLALYQEGDKRLAAYFAAPDENGNRKSSKGGKREFSCTFRVGELYLNAAEAAANMDKLPHARMRLLELMRKRYTPEAYDKKENAVNVMDKNALISEILNERARELAFEGHRWFDLRRTTRPRMVKVLQGKTYILEQDDPRYTIPIPRDAIAANPGLAN	glycan array binding signal (z-score)	[3]	0.011
same	glycan array binding signal (z-score)	[33]	-0.576
